Measurements from US10245328B2, “Gadolinium complex comprising DO3A-tranexamic acid conjugate” (KYUNGPOOK NATIONAL UNIVERSITY INDUSTRY-ACADEMIC COOPERATION …, priority 2014, dated 2019).

Assay: Isothermal titration calorimeter (ITC), binding of Gd^3+ to ligand
Settings: 25° C.; for Ka (association constant) / N (number of Gd^3+ coupled to a single ligand) / ΔH: pH = 4.5; for ΔG: pH = 4.5, calculated from ΔG=−RT·lnKa; for ΔS: pH = 4.5, calculated from ΔG=−RT·lnKa=ΔH−TΔS
Procedure: In order to quantify binding isotherms of paramagnetic metal ions Gd^3+ with a ligand solution, an ITC test is executed at a VP-ITC isothermal titration microcalorimeter (Microcal, USA). Data collection, analysis and plotting are executed with help of software package Origin, version 8.0 from Microcal. A sample cell has a 1.43 mL volume. The cell is filled with a water-soluble buffer solution of the above compound 1a-e ligand (0.2 mM). A water-soluble buffer solution of Gd^3+ (1.0 mM) is input into a 300 μL continuous agitated (300 rpm) syringe and 10 μL aliquots thereof is injected into the cell. At a 3-mins interval, the cell is delivered over 20 s. Data points are collected on a 2 s basis. The measurement is executed at 25° C. All titrations are executed three times to secure data consistency and solution stability. These titration isotherms are integrated to find out an enthalpy change at each injection. In order to fit well with two mathematically different sets of site models, the titration isotherms are analyzed. Via a calorie measurement, parameters including a binding constant (Ka), a change in enthalpy (ΔH), a stoichiometry of binding (N) are calculated. Next, a free energy (ΔG) and an entropy change (ΔS) are calculated using a following complexation equation: Mn++nL↔MLn:ΔG=−RT·InKa=ΔH-TΔS,
where, R indicates a universal gas constant; T is Kelvin temperature.

Structure (SMILES)	Ka (association constant)	N (number of Gd^3+ coupled to a single ligand)	ΔH [kcal/mol]	ΔG [kcal/mol]	ΔS [cal · mol^−1 · K^−1]
CCOC(=O)C1CCC(CNC(=O)CN2CCN(CC(=O)O)CCN(CC(=O)O)CCN(CC(=O)O)CC2)CC1 (centres unmarked) [1a]	5.19 10^4M^−1	0.89	4.19	-6.42	35.60
O=C(O)CN1CCN(CC(=O)O)CCN(CC(=O)NCC2CCC(C(=O)O)CC2)CCN(CC(=O)O)CC1 (centres unmarked) [1b]	25.10 10^4M^−1	0.37	7.13	-7.35	48.60
NC1CCC(NC(=O)CN2CCN(CC(=O)O)CCN(CC(=O)O)CCN(CC(=O)O)CC2)CC1 (centres unmarked) [1d]	3.41 10^4M^−1	0.19	4.33	-6.19	35.30
NCCNC(=O)C1CCC(CNC(=O)CN2CCN(CC(=O)O)CCN(CC(=O)O)CCN(CC(=O)O)CC2)CC1 (centres unmarked) [1c]	5.97 10^4M^−1	0.28	5.94	-6.52	41.80
